Values joined by “and” are separate entries in the source; they are usually repeats but may differ in a detail not shown here. Equal values may be shown once. Screen size: about 360,000 compounds; about 9,100 (2.5%) were called active. The shares of active, inactive and inconclusive entries below differ from those in the screen. Cut-off read from the data, not from the text of the source: active = max response below about -50%; inconclusive = no clear call, values can overlap the other calls; inactive = above that.
The compounds below were run against D(3) dopamine receptor (Homo sapiens) (UniProt P35462) (assay: qHTS of D3 Dopamine Receptor Antagonist: qHTS). Details: D3R cells, DiscoveRx beta-arrestin luminescence, antagonist mode; active compounds read low.
How it was run: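 Cells expressing the human receptor were seeded at 1500 cells/well, incubated overnight at 37 degrees C in 5% CO2, then exposed to library compounds with dopamine controls for 90 minutes at 37 degrees C before luminescent detection.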
% is set by controls: 0 for no effect and ±100 for the full control effect.

Amino acid sequences for entries named in this document (tags omitted).
UniProt P35462, whole entry, looked up: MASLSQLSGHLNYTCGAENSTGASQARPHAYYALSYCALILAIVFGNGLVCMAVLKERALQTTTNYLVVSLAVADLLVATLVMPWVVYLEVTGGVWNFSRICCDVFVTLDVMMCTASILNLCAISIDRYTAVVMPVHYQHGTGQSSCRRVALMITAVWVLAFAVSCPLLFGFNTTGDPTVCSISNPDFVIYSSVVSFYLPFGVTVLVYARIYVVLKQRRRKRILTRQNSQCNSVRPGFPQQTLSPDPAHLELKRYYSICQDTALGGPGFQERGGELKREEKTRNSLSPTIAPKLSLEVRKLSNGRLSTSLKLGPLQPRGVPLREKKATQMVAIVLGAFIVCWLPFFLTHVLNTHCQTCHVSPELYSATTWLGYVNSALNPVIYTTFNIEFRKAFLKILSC

SMILES	max response, negative = inhibition
Cc1ccc(S(=O)(=O)c2c(N)n(CCN3CCOCC3)c3nc4ccccc4nc23)cc1C	inactive: -1.47%
O=C(NCCNCc1ccc(F)cc1)c1ccco1	active: -65.6%
C[C@H](CO)N1C[C@H](C)[C@@H](CN(C)S(C)(=O)=O)Oc2ccc(NC(=O)C3CCCCC3)cc2C1=O	inactive: 19.9%
CC(=O)c1c(C)oc2ccc(N(C(C)=O)S(=O)(=O)c3ccc(Cl)c([N+](=O)[O-])c3)cc12	inconclusive: -42.6%
CCN1C(=O)CC(NC2CCN(C(=O)c3ccc(F)cc3)CC2)C1=O (configuration not stated)	inactive: -18.7%
CCc1ccc2c(c1)C1(NN=C(c3ccc(C)cc3)S1)C(=O)N2 (configuration not stated)	active: -93.9%
Cc1noc(C)c1CN(C(=S)NC(C)C)c1ccccc1	inactive: -7.94%
COC(=O)c1c(NC(=O)Cc2ccccc2)sc2c1CCN(C(C)C)C2	inconclusive: -34.8%
CC1=CCC(C(=O)O)C(C(=O)O)C1 (configuration not stated)	inconclusive: -32%
O=C1CCCc2c1[nH]c1ccc(CN3CCCCC3)cc21	active: -53.8%
O=C(O)c1cc(NC(=O)C2CCCO2)cc(C(=O)O)c1 (configuration not stated)	inactive: 24.7%
CCC(=O)N1CCN(c2ccc(NC(=O)c3ccco3)cc2)CC1	inconclusive: -38.2%
Cc1sc2nc(CSC(C)C(=O)Nc3ccc(C#N)cc3)[nH]c(=O)c2c1C (configuration not stated)	inconclusive: -41%
COc1cc(/C=N/NC(=O)C23CC4CC(CC(C4)C2)C3)cc(Br)c1O	inconclusive: -39.7%
O=C(NC1CCCCC1)N1CCN(CCc2ccccc2)CC1	active: -61.4%
O=C(CNS(=O)(=O)c1ccc2ccccc2c1)Nc1ccc(F)c(F)c1F	inconclusive: -40.8%
CC(C)N1CC23C=CC(O2)C(C(=O)OCc2ccccc2)C3C1=O (configuration not stated)	inconclusive: -33.5%
COc1ccc(-c2n[nH]c(C(F)(F)F)c2-c2cc3ccccc3o2)c(O)c1	inactive: 19.5%
Cc1cc2c(cc1C)N(C(=O)CN1C(=O)c3ccccc3C1=O)C(C)(C)c1ssc(=S)c1-2	inconclusive: -42%
Cc1c(-c2ccc(Br)cc2)nc2ccccn12	inactive: -17.8%
O=C(CN1CCN(Cc2ccc3c(c2)OCO3)CC1)Nc1ccc2c(c1)OCO2	inconclusive: -37%
Nn1c(COc2ccccc2)nnc1SCc1cc(=O)[nH]c2ccccc12	inconclusive: -32%

SMILES	max response, negative = inhibition
CCOC(=O)C1=C(C(=O)OCC)N(CC2CCCCC2)CCC1=O	inconclusive: -34.4%
Cc1ccc(Oc2ccc(NC(=O)c3ccco3)cc2)cc1	inactive: 23.8%
CC1CC(C)CN(CC(=O)Nc2cc(S(=O)(=O)N3CCOCC3)ccc2N2CCCC2)C1 (configuration not stated)	inactive: -3.65%
OCCOCCn1c(C2CCCN2c2nc(-c3ccc(F)cc3)cs2)nc2cc(C(F)(F)F)ccc21 (configuration not stated)	inactive: -25%
O=[N+]([O-])c1ccc(S(=O)(=O)c2cccc(C(F)(F)F)c2)nc1	active: -126%
c1ccc(CN2CCN(c3nc4ccccc4c4ccccc34)CC2)cc1	inconclusive: -35.3%
Cn1nc(C(=O)NCc2ccco2)c2ccccc2c1=O	inconclusive: -38.3%
COc1cccc(N2CCN(c3nc(C)c(C)c(=O)[nH]3)CC2)c1	inactive: 18.2%
CCc1cc2c(SCC(=O)NC3CCCC3)ncnc2s1	inconclusive: -32.7%
CSCC(C)N1CCC(Oc2cccc(C(=O)NCc3ccccn3)c2)CC1 (configuration not stated)	inactive: -2.69%
O=C(OCc1ccccc1)C1CCN(S(=O)(=O)c2cccs2)CC1	inactive: 8.59%
COc1ccc(-c2noc(CSc3nc(N)c(-c4ccccc4)c(=O)[nH]3)n2)cc1OC	inactive: 30.7%
CCOC(=O)C1=CCN(S(=O)(=O)c2ccccc2Cl)C1c1ccc(C)cc1 (configuration not stated)	inconclusive: -39.8%
COC(=O)c1sccc1NC(=O)Nc1ccc(F)cc1	inactive: 13.6%
CC(C)Nc1nc(NCCOc2ccccc2Cl)c2sc(-c3ccccc3)cc2n1	inconclusive: -31.5%
Cc1ccc(NC(=O)CSc2nnnn2C2CC2)cc1S(=O)(=O)N1CCOCC1	inconclusive: -36.4%
O=c1cc(CCl)[nH]c2nc3ccccc3n12	inactive: 3.65%
CCOC(=O)CN1C(=O)N2C[C@H]3CON(C)[C@H]3C[C@H]2c2ccccc21	inactive: -24.3%
O=C(N/N=C/c1cc2c(cc1Br)OCO2)c1cc2ccccc2o1	active: -107%
CC1Nc2ncnc(N3CCOCC3)c2N(Cc2ccc(Cl)cc2)C1=O (configuration not stated)	inconclusive: -37.2%
O=C(N/N=C/c1cccc(O)c1)N/N=C/c1cccc(O)c1	inactive: 0%
CCOC(=O)/C(C(N)=NCCO)=C(/O)c1ccccc1	inconclusive: -40.2%

SMILES	max response, negative = inhibition
O=C(CCS(=O)(=O)c1ccc(Br)cc1)Nc1ccccc1Cl	inconclusive: -33.4%
Cc1ccn(CC(=O)N/N=C/c2cc([N+](=O)[O-])ccc2O)n1	inconclusive: -30.3%
CCCCc1ccc(NC(=O)COC(=O)c2ccc3ncsc3c2)cc1	inactive: 2.02%
Cc1ccc(COc2ccc(CNCCCN3CCCCCC3=O)cc2)cc1	inactive: -6.57%
COCCN(Cc1ccccc1)C(=O)c1ccc2c(=O)n3c(nc2c1)CCC3	inactive: 11%
O=C(CCc1ccccc1)NC(=S)Nc1ccccc1[N+](=O)[O-]	inconclusive: -33%
OCC1(Cc2ccccc2)CCCN(Cc2ccc(-c3ccco3)cc2)C1 (configuration not stated)	active: -90.4%
CC(=O)c1ccc(NC(=S)N(C)C2CCN(C)CC2)cc1	inconclusive: -35%
CC(C)n1cc(/C(N)=N/O)c(=O)n(Cc2ccccc2)c1=O	inconclusive: -34.1%
CCOC(=O)C(NC(=O)Nc1ccc(F)cc1)(OCC)C(F)(F)F (configuration not stated)	active: -52.6%
CCOc1ccc(NC(=O)CN(C)C(=O)c2cc(-c3cccs3)nn2-c2ccccc2)cc1OCC	inconclusive: -33.8%
COCCn1c(=O)[nH]c2cc(C(=O)NCCN3CCN(c4cccc(Cl)c4)CC3)ccc2c1=O	inconclusive: -41.9%
COc1ccc(Cl)cc1C(=O)NNC(=S)NC(=O)c1cc(-c2ccc(Cl)cc2)nc2ccccc12	active: -60.9%
CCCC(=O)OCCNc1cc(Sc2nccn2C)c2nonc2c1[N+](=O)[O-]	active: -91.9%
Cc1ccc2occ(CN3CCN(c4ccccc4)CC3)c(=O)c2c1	inconclusive: -45.6%
O=C(NC1CCCCCCC1)C1c2ccccc2C(=O)N1Cc1cccs1 (configuration not stated)	inactive: 0%
COc1cccc(NC(=O)C(=O)N/N=C/c2cc(C)n(-c3ccc(Cl)c(Cl)c3)c2C)c1	active: -93.6%
Nc1nc(SCC(=O)Nc2ccc([N+](=O)[O-])cc2)[nH]c(=O)c1NC(=O)c1ccc(Br)o1	inactive: -7.35%
COc1ccc(Cl)cc1NC(=O)CN1CCCC1	inconclusive: -36.9%
O=P1(O)Cc2ccccc2-c2ccccc21	inconclusive: -32.7%
COc1ccc2nc(C)cc(Nc3ccc(C)cc3)c2c1	inactive: 12.7%
COc1ccc(N(CC(=O)N2CCN(c3cccc(C)c3C)CC2)S(=O)(=O)c2c(C)noc2C)cc1	inactive: 4.73%

Taken from above.
max response, negative = inhibition with CC(=O)c1ccc(NC(=S)N(C)C2CCN(C)CC2)cc1 reads inconclusive: -35%
max response, negative = inhibition with COc1ccc(Cl)cc1C(=O)NNC(=S)NC(=O)c1cc(-c2ccc(Cl)cc2)nc2ccccc12 reads active: -60.9%
max response, negative = inhibition with Cc1ccc(COc2ccc(CNCCCN3CCCCCC3=O)cc2)cc1 reads inactive: -6.57%

Continuation:

SMILES	max response, negative = inhibition
CC(C)(C)c1ccc2c(c1)OC(C(=O)N/N=C/c1ccc([N+](=O)[O-])o1)CO2 (configuration not stated)	inconclusive: -32.9%
CC(C)CCNC(=O)C(=O)Nc1ccc2c(c1)N(S(=O)(=O)c1cccs1)CCC2	inactive: -22.7%
O=C(CCSc1ccc(Cl)cc1)NC12CC3CC(CC(C3)C1)C2	inconclusive: -44.3%
Cc1nc(NCCc2ccc(O)cc2)c2nnn(Cc3ccccc3)c2n1	active: -82.5%
COc1ccc(C(CNC(=O)C2CC(=O)N(Cc3ccccc3)C2)N2CCCC2)cc1 (configuration not stated)	inactive: -9.57%
CC(C)c1ccc(S(=O)(=O)/N=C2/C=C(Sc3ncn[nH]3)C(=O)c3ccccc32)cc1	active: -75.2%
CSCCC(NS(=O)(=O)c1ccc(Cl)cc1)C(=O)OCc1c(Cl)cccc1Cl (configuration not stated)	inactive: 16.6%
CSc1nc2ccccc2n1CC(=O)Nc1cc(C(F)(F)F)ccc1N1CCOCC1	inconclusive: -49.7%
Cc1ccc(S(=O)(=O)/C(C#N)=C/c2c(N3CCN(C)CC3)nc3ccccn3c2=O)cc1	inconclusive: -36.8%
CCN(c1ccccc1)S(=O)(=O)c1cccc(C(=O)NCC(c2ccco2)N2CCCCC2)c1 (configuration not stated)	inconclusive: -40.3%
CCN(CC)CCn1c(NCc2nc3ccccc3n2Cc2ccccc2)nc2ccccc21	active: -55.2%
OC(c1ccccc1)c1nc(/C=C/c2ccc(C(F)(F)F)cc2)cs1 (configuration not stated)	inconclusive: -43.2%
CC(=O)N1CCc2cc(N=NC3=C(O)CCCC3=O)ccc21	inactive: -11%
Cc1cc(N2C(=O)CC(N3CCN(c4ccc(C(=O)c5cccs5)cc4)CC3)C2=O)no1 (configuration not stated)	active: -52.1%
O=C(NCc1ccco1)C12CC3CC(C1)CC(C(=O)NCc1ccco1)(C3)C2	inconclusive: -32.9%
CCN(CC)C(=O)c1cnn(-c2ccccc2)c1NC(=O)c1ccco1	inconclusive: -30.1%
Cc1ccccc1[C@H](NC1c2ccccc2C=Cc2ccccc21)P(=O)(c1ccccc1)c1ccccc1	active: -55.5%
O=C(O)c1ccc(Cl)c(S(=O)(=O)NCC2CCCO2)c1 (configuration not stated)	active: -53.7%
O=C(Cc1ccc(F)cc1)N1CCC(N2CCC(C(=O)N3CCOCC3)CC2)CC1	inconclusive: -30.8%
O=C(Nc1ccccc1)Nc1ccc(F)c([N+](=O)[O-])c1	inactive: -11.5%
